Assay results: PMC13437097
These are yes or no findings as the source states them, for the method shown. In cells and extracts the contact can be indirect. These calls come from enrichment with a bait or labelling near it, and not all partners need be listed. For some assays here: No binding means not detected with the bait.

Key:
[1] = molecular target: T1, SREBP cleavage-activating protein (SCAP) (mouse (endogenous in mouse VSMCs)) (UniProt Q6GQT6); test: affinity purification with mass spectrometry; IP with SCAP antibody (Abcam ab153933) from whole cell extracts of PDGFBB-treated VSMCs, magnetic beads, SDS-PAGE, LC-MS/MS
T1 sequence: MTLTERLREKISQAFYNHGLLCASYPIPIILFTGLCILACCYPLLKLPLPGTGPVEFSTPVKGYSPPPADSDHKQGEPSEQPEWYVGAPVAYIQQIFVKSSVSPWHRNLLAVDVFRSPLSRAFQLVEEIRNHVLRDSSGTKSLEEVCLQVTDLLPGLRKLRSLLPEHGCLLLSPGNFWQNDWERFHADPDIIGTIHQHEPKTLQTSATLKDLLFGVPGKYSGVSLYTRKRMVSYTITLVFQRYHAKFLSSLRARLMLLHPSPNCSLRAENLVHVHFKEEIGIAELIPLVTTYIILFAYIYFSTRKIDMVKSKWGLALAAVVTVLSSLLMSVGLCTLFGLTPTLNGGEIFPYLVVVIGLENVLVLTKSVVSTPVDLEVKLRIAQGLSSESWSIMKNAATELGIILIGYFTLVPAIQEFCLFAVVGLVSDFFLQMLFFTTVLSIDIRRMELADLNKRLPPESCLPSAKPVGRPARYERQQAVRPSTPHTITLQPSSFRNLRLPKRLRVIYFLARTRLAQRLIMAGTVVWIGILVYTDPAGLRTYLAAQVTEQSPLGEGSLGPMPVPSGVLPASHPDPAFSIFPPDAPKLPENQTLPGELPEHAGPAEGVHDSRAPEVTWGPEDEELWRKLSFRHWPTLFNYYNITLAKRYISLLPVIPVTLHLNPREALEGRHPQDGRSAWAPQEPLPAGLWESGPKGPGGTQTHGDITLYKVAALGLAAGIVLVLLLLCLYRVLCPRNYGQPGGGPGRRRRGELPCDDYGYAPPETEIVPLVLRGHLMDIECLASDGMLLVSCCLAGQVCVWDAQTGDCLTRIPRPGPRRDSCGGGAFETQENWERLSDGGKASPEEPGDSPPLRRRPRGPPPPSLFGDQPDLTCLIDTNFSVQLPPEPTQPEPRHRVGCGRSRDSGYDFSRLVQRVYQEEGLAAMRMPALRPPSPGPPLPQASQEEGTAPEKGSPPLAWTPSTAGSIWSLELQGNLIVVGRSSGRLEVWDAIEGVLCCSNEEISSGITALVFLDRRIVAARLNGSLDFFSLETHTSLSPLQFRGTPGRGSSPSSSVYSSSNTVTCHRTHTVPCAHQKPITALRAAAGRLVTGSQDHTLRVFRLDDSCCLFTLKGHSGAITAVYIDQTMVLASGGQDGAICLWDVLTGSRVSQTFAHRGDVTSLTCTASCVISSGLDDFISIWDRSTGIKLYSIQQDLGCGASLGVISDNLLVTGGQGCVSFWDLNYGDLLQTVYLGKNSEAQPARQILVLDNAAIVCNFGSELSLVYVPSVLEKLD

[2] = molecular target: T1, SREBP cleavage-activating protein (SCAP) (mouse (endogenous in mouse VSMCs)); test: affinity purification with mass spectrometry; IP with SCAP antibody (Abcam ab153933) from whole cell extracts of control VSMCs (no PDGFBB), magnetic beads, SDS-PAGE, LC-MS/MS

B1: Tripartite motif containing 27 (Trim27) (protein, UniProt Q62158 1-513)
chain: MASGSVAECLQQETTCPVCLQYFVEPMMLDCGHNICCACLARCWGAAETNVSCPQCRETFPQRHMRPNRHLANVTQLVKQLRTERPSGPGGEMGVCEKHREPLKLYCEQDQMPICVVCDRSREHRGHSVLPLEEAVEGFKEQIQNRLDHLRRVKDLKKRRRAQGEQARAELLSLTQMEREKIVWEFEQLYHSLKEHEYRLLARLEELDLAIYNSINGAITQFSCNISHLSGLIAQLEEKQQQPTRELLQDIGDTLSRAERIRIPEPWITPPDLQEKIHIFAQKCLFLTESLKQFTEKMQSDMEKIQELREAQLYSVDVTLDPDTAYPSLILSDNLRQVRYSYLQQDLPDNPERFNLFPCVLGSPCFIAGRHYWEVEVGDKAKWTIGVCEDSVCRKGGVTSAPQNGFWAVSLWYGKEYWALTSPMTALPLRTPLQRVGIFLDYDAGEVSFYNVTERCHTFTFSHATFCGPVRPYFSLSYSGGKSAAPLIICPMSGIDGFSGHVGNHGHSMETSP
[1]
  binding: binds
[2]
  binding: no binding (only cells without PDGFBB)
